Measured values taken from PubChem BioAssay AID504444 (National Center for Advancing Translational Sciences (NCATS), 2011).
Among all 360,000 compounds or so, about 7,500 (2.1%) were called active. Inconclusive means that the source gave no clear call. Such entries were picked first, then a sample of the others. Calls follow the shape of the dose curve; as a rule, active = well fitted inhibition curve with a large enough effect; inconclusive = small, poorly fitted or top-dose-only effect, or effect the other way; inactive = flat fitted curve, though single readings scatter. Where the call is inconclusive, the potency comes from a doubtful curve fit.

Assay: Nrf2 qHTS screen for inhibitors; also: nearly all actives have a fitted effect of over 60% in size
Settings: A549 ARE-Fluc reporter, luciferase luminescence, 18-24 h; activity change, negative = inhibition: at 46 µM (top of the series)
Summary of the method: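 Two sequential reads on A549 ARE_Fluc cells exposed to compound for 18-24 h: a CellTiter-Fluor fluorescence read for viability, then a luciferase luminescence read for Nrf2/ARE activity.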
% is scaled to controls: 0 for no effect and ±100 for the full control effect; potency is read from the fitted curve at half-maximal effect.

Row | Structure (SMILES) | Potency | activity change, negative = inhibition
1 | COc1ccc(C(=O)NNC(=O)c2ccc3ccccc3n2)cc1 | inconclusive: 29.1 µM [falling, single point] | 
2 | Cc1cccc(/C=N/NC(=O)Cc2cccs2)c1 | inconclusive: 9.2 µM [activator, partial curve, poor fit] | 
3 | Cc1c(OCC(=O)NCc2ccncc2)ccc2c3c(c(=O)oc12)CCC3 | inconclusive: 5.17 µM [falling, partial curve, poor fit] | 
4 | Cn1c(NCc2cccnc2)nc2c1c(=O)n(Cc1ccccc1F)c(=O)n2C | inconclusive: 32.6 µM [falling, single point] | 
5 | O=C(NNC1=Nc2ccccc2SC1)c1ccc(Cl)cc1 | active: 10.3 µM | 
6 | Cc1c(NCc2ccncc2)cccc1C(=O)O |  | inactive: -0.878%
7 | CC1(C)Oc2ccc3ccc(=O)oc3c2/C(=C/Nc2ccc(O)cc2)C1=O | inconclusive: 20.6 µM [falling, single point] | 
8 | O=C(CN1CCN(S(=O)(=O)N2CCOCC2)CC1)Nc1cc(Cl)ccc1Cl | inconclusive: 29.1 µM [falling, single point] | 
9 | Cc1ccc(Nc2cc(-c3ccccc3)nc3ncnn23)cc1 | inconclusive: 4.61 µM [falling, full curve] | 
10 | COc1ccc(CNC(=O)C(=O)NC2CC(C)(C)NC(C)(C)C2)cc1 | inconclusive: 20.6 µM [activator, partial curve, poor fit] | 
11 | COc1ccc(-c2csc(C3=C(O)CN(C(C)C)C3=N)n2)cc1OC | inconclusive: 13 µM [falling, single point] | 
12 | COc1cc2c(cc1OC)-c1nnnn1C(C)(C)C2 | inconclusive: 2.31 µM [activator, partial curve, poor fit] | 
13 | Cc1cc(C)cc(N(CC(=O)Nc2ccc(C(F)(F)F)cc2)S(=O)(=O)c2c(C)[nH]c(=O)[nH]c2=O)c1 | inactive | 
14 | Cc1cc(N2CCC(C)CC2)nc2cccc(O)c12 | inconclusive: 25.9 µM [activator, single point] | 
15 | Cc1ccc(OCCSc2nc3ccccc3n2CCC(=O)O)cc1C | inconclusive: 29.1 µM [falling, single point] | 
16 | COC(=O)c1ccc(NC(=O)CCc2c(C)nc3ncnn3c2C)cc1 | inconclusive: 6.51 µM [falling, partial curve, poor fit] | 
17 | CC(C)(C)OC(=O)C[C@H]1C/C=C\C[C@@H](CC(=O)N[C@H](CO)Cc2ccccc2)C(=O)NC[C@@H](c2ccccc2)OC1=O |  | inactive: 22.1%
18 | CCCN1C(=O)c2ccc(C(=O)NCc3ccco3)cc2C1=O |  | inactive: 14.3%
19 | NC(=O)c1c(NC(=O)Cn2cc([N+](=O)[O-])cn2)sc2c1CCCC2 | inconclusive: 10.3 µM [falling, partial curve, poor fit] | 
20 | COc1ccc(CC/C(=N\O)C2(O)CCCCC2)cc1 | inconclusive: 1.16 µM [activator, full curve, poor fit] | 
21 | CCCCNc1c(-c2ccc(OC)c(SC3CCCCC3)c2)nc2cnccn12 | inconclusive: 29.1 µM [falling, single point] | 
22 | CCOC(=O)C1(CC2CCCCO2)CCN(Cc2ccc(OC)cc2F)CC1 (stereo not drawn) | inconclusive: 13 µM [falling, partial curve] | 
23 | Cc1[nH]n(-c2ccccc2)c(=O)c1C(c1cccc([N+](=O)[O-])c1)c1c(C)[nH]n(-c2ccccc2)c1=O | inconclusive: 32.6 µM [falling, single point] | 

Row | Structure (SMILES) | Potency | activity change, negative = inhibition
24 | O=C(CSc1nncs1)NC(=O)Nc1ccc2c(c1)OCCO2 | inconclusive: 9.2 µM [activator, partial curve] | 
25 | CC(C)(C)CC(=O)Nc1nnc(C(F)(F)F)s1 | inconclusive: 29.1 µM [falling, single point] | 
26 | CC(=O)Nc1ccc2[nH]c(C)c(CC=C(Cl)Cl)c(=O)c2c1 | inconclusive: 1.84 µM [falling, partial curve, poor fit] | 
27 | O=C(Cc1c(F)cccc1Cl)OCC(=O)c1ccc[nH]1 | inconclusive: 16.4 µM [activator, single point] | 
28 | COc1ccc(N2CCN(C3CCCN(S(=O)(=O)c4ccccc4)C3)CC2)cc1 (stereo not drawn) |  | inactive: -11.5%
29 | COc1ccccc1N1CCN(C(c2ccccc2)c2nnnn2CCc2ccccc2)CC1 (stereo not drawn) | inconclusive: 25.9 µM [falling, partial curve, poor fit] | 
30 | Cc1nc(Nc2ccc3c(c2)OCCO3)c2nnn(Cc3ccccc3Cl)c2n1 | inconclusive: 29.1 µM [falling, single point] | 
31 | COc1ccc(NC(=O)CSc2cn[nH]n2)cc1OC |  | inactive: 0.444%
32 | S=C(NCc1ccco1)Nc1ccccc1Cl |  | inactive: 0.7%
33 | Cc1cc(C)cc(NC(=O)COc2ccc(C(=S)N3CCOCC3)cc2)c1 | inconclusive: 18.4 µM [falling, single point] | 
34 | Oc1ccc(/C=N/Nc2nc(-c3cccnc3)nc3ccccc23)c(O)c1 | active: 20.6 µM | 
35 | CCOC(=O)c1ccc(NC(=O)CSc2nc3cccnc3n2C)cc1 | active: 20.6 µM | 
36 | O=C(COc1ccccc1[N+](=O)[O-])N1CCN(C(=O)c2ccco2)CC1 |  | inactive: -1.98%
37 | Cc1ccc(OCC(=O)O/N=C(\N)c2ccccn2)cc1 | inconclusive: 10.3 µM [activator, partial curve] | 
38 | COc1ccccc1NS(=O)(=O)c1ccc2oc(SC)nc2c1 | active: 20.6 µM | 
39 | CCn1c2c(c(=N)c3ccccc31)CCC2 | active: 13 µM | 
40 | Cc1cnc(NC(=O)CCCNC(=O)c2ccc(Cl)cc2)s1 | inconclusive: 18.4 µM [activator, partial curve] | 
41 | O=C(CSc1nc(-c2ccccc2)[nH]c1-c1ccc(F)cc1)NC1CCCC1 | inconclusive: 32.6 µM [falling, single point] | 
42 | CSc1ccc(NC(=O)Nc2cc(C)ccn2)cc1 | inconclusive: 1.84 µM [activator, partial curve, poor fit] | 
43 | CCCC(=O)Nc1c(C(=O)N2CCN(c3ccccc3)CC2)oc2ccccc12 | inconclusive: 32.6 µM [falling, single point] | 
44 | CC(C)c1ccc(S(=O)(=O)Nc2cc3c(cc2NCc2ccccc2)n(C)c(=O)n3C)cc1 | active: 25.9 µM | 
45 | CCN(CC)c1ccc(NC(=O)c2[nH]c(C)c(C(C)=O)c2C)c(C)c1 | inconclusive: 23.1 µM [falling, partial curve, poor fit] | 
46 | COCCN(C(=O)COC(=O)c1c(NC(C)=O)sc(C)c1C)c1c(N)n(Cc2ccccc2)c(=O)[nH]c1=O | inconclusive: 10.3 µM [falling, partial curve, poor fit] | 

Row | Structure (SMILES) | Potency | activity change, negative = inhibition
47 | O=C(CCc1nnc(CCCCc2ccccc2)o1)NCc1cccc(F)c1 | inconclusive: 2.06 µM [activator, full curve, poor fit] | 
48 | CCc1ccccc1N(C)C(=O)c1cc2c(s1)-c1c(C)cccc1OC2 |  | inactive: -11.1%
49 | COC(=O)c1cccc(S(=O)(=O)N2CCOCC2)c1 | inconclusive: 23.1 µM [activator, single point] | 
50 | Cc1ccc(NC(=O)C2CCN(S(=O)(=O)c3c(C)noc3/C=C/c3ccco3)CC2)nc1 | active: 16.4 µM | 
51 | FC(F)(F)c1cc(Cl)c2nnc(-c3ccccn3)n2c1 | inconclusive: 14.6 µM [falling, partial curve, poor fit] | 
52 | CC(C)NS(=O)(=O)c1ccc(OCC(=O)N2CCN(c3cccc(Cl)c3)CC2)cc1 | inconclusive: 29.1 µM [falling, partial curve, poor fit] | 
53 | CSc1ccc(Cl)c(C(=O)Nc2ccc(OCC(N)=O)cc2)c1 | inconclusive: 4.11 µM [falling, partial curve] | 
54 | O=C(Nc1ccc(Cl)cc1)[C@@H]1[C@@H]2C(=O)N(c3ccc4ccccc4c3)C(=O)[C@@H]2[C@H]2C=CC=NN21 |  | inactive: 2.32%
55 | CCNc1ccc(S(=O)(=O)N(C)C)cc1NCC(=O)Nc1ccccc1F | inconclusive: 23.1 µM [falling, single point] | 
56 | Cc1nc2c3cc(Cl)ccc3n(CCN3CCOCC3)c2s1 | inconclusive: 2.06 µM [falling, full curve, poor fit] | 
57 | CCc1ccc(S(=O)(=O)c2nnn3c2nc(N2CCN(CC)CC2)c2sccc23)cc1 |  | inactive: 28.1%
58 | CCCN1CCN(CCCNC(=O)C(CC)n2nc(C)c3sc4ccccc4c3c2=O)CC1 (stereo not drawn) |  | inconclusive: 40.1% [activator]
59 | CCCCCCSc1cc(C)nc2ncnn12 | inconclusive: 16.4 µM [falling, single point] | 
60 | CCOC(=O)c1ccc(S(=O)(=O)NNc2ccc(C(F)(F)F)cn2)cc1 | inconclusive: 29.1 µM [falling, single point] | 
61 | CCOC(=O)c1ccc(N2C(=O)c3n[nH]c(-c4ccco4)c3C2c2cccc(F)c2)cc1 (stereo not drawn) | active: 20.6 µM | 
62 | Cc1cc2ncc(-c3ncc(C(F)(F)F)cc3Cl)cn2n1 | inconclusive: 2.31 µM [activator, partial curve] | 
63 | O=C(CNC(=O)C1CCCCC1)OCC(=O)c1ccc([N+](=O)[O-])cc1 | inconclusive: 0.731 µM [falling, full curve, poor fit] | 
64 | COC(=O)c1ccc2c(=O)n(CCN3CCOCC3)c(SCC(=O)c3ccccc3)nc2c1 |  | inactive: 6.92%
65 | O=C(O)c1ccc2c(c1)C(=O)N([C@@H](Cc1ccc(O)cc1)C(=O)O)C2=O |  | inactive: -8.97%
66 | COc1ccc(C(=O)c2cn(Cc3ccc(F)cc3)c3c(F)cc(F)cc3c2=O)cc1 | inconclusive: 29.1 µM [falling, single point] | 
67 | Cc1ccc2sc(N(CCCN(C)C)C(=O)CCS(=O)(=O)c3ccccc3)nc2c1C |  | inactive: -17.2%
68 | COc1ccc(-c2nnc(SCC(=O)Nc3sc4c(c3C#N)CCCC4)n2-c2ccccc2)cc1 | inconclusive: 6.51 µM [falling, single point] | 

A portion of the results above, for reference:
Row | Structure (SMILES) | Potency | activity change, negative = inhibition
48 | CCc1ccccc1N(C)C(=O)c1cc2c(s1)-c1c(C)cccc1OC2 |  | inactive: -11.1%
49 | COC(=O)c1cccc(S(=O)(=O)N2CCOCC2)c1 | inconclusive: 23.1 µM [activator, single point] | 
